The exact form of at least one protein or probe is not confirmed. At least one verdict was read from the data and is not stated in words by the source.
Biological target: GST-LeEIL4 (Solanum lycopersicum) (UniProt Q76DI3)
Test: EMSA
Conditions: 200-fold unlabeled probe used as competitor in separate reactions; DIG Gel Shift Kit (Roche) per manufacturer's instructions; pH and temperature not stated; polyacrylamide gel, 200-fold unlabeled competitor; recombinant protein; residues 1-605; protein details: N-terminal GST (pGEX-4T-1); label: DIG-ddUTP (3' end labeling)

Amino acid sequences for entries named in this document (tags omitted).
UniProt Q76DI3, entry or part of it: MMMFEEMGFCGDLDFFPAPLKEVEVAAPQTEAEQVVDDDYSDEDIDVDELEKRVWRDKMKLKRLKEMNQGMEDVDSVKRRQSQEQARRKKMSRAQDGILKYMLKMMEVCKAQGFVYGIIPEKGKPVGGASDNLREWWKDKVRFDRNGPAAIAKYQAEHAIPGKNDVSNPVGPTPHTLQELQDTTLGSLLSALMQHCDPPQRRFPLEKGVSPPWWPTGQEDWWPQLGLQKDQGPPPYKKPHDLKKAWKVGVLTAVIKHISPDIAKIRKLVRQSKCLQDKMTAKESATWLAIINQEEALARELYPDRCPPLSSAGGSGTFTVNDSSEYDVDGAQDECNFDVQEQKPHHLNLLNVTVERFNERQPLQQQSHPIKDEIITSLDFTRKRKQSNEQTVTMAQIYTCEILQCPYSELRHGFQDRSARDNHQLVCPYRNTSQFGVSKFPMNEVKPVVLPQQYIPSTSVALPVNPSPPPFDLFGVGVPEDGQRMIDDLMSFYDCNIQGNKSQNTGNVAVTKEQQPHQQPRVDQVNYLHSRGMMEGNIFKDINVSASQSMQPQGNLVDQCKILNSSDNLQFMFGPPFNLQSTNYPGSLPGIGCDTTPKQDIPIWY

“ATAAATATATAAATTTCATTCAAAAAAAATTGAAGATCTC (double strand) [probe 2, PERE-like element -857 to -851]”: binds.

“ATAAATTGAACGATACATTCAAATAAGTACTAACGATTAT (double strand) [probe 3, PERE-like element -787 to -781]”: binds.

“TATAGATATTTTAAACATTTTGAATTATCAATTATTGTGA (double strand) [probe 1, PERE-like element -920 to -914]”: binds.

Reference: article PMC4951782
